Experimental data taken from article PMC6908673, “Tuning the in vitro sensing and signaling properties of cyanobacterial PII protein by mutation of key residues” (Scientific Reports, 2019).
No constants are given. Whether binding was seen depends on the method and setting. Some entries that bind do so weakly or less than the wild type. Tags and fused reporters may be left off the sequences shown.

Tests used:
[1] = biological target: T1, PipX (PII-interacting protein X), His6-tagged (UniProt Q7X386); test: SPR; indirect assay: 500 nM His6-PipX pre-incubated with Strep-tagged PII (500 nM in Fig. 4, 100 nM in Fig. 5), mixture injected on Ni-NTA chip; without effector molecules; 25 °C, HBS buffer; both purified
T1 sequence: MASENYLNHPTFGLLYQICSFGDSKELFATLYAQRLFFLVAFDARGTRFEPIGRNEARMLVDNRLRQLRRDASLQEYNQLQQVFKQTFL

[2] = biological target: T1, PipX (PII-interacting protein X), His6-tagged; test: SPR; indirect assay: 500 nM His6-PipX pre-incubated with 100 nM Strep-tagged PII, mixture injected on Ni-NTA chip; with 1 mM ATP and 1 mM 2-OG; 25 °C, HBS buffer; both purified
[3] = biological target: T1, PipX (PII-interacting protein X), His6-tagged; test: SPR; indirect assay: 500 nM His6-PipX pre-incubated with Strep-tagged PII, mixture injected on Ni-NTA chip; with ADP (3 mM in Fig. 4, 1 mM in Fig. 5); 25 °C, HBS buffer; both purified
[4] = biological target: T1, PipX (PII-interacting protein X), His6-tagged; test: SPR; indirect assay: 500 nM His6-PipX pre-incubated with Strep-tagged PII, mixture injected on Ni-NTA chip; with 1 mM ATP; 25 °C, HBS buffer; both purified

binding [1]: binds | binding [2]: binds | binding [3]: binds | binding [4]: binds
B1: PII (I86N) variant from S. elongatus, Strep-tagged (protein, UniProt P0A3F4 1-112)
chain: MKKIEAIIRPFKLDEVKIALVNAGIVGMTVSEVRGFGRQKGQTERYRGSEYTVEFLQKLKLEIVVEDAQVDTVIDKIVAAARTGENGDGKIFVSPVDQTIRIRTGEKNADAI
